The source of these data is ChEMBL document CHEMBL4043290, “Structure-based Design of Pyridone-Aminal eFT508 Targeting Dysregulated Translation by Selective Mitogen-activated Protein Kinase Interacting Kinases 1 and 2 (MNK1/2) Inhibition” (J Med Chem, 2018).

The series is described as follows: physchem. The note with it: octanol/water.

Each structure is given as a SMILES string.

`Cc1cc(Nc2cc(N)ncn2)c(=O)n2c1C(=O)NC21CCC(F)(F)CC1` registered a logP of 2.4.

As usually defined, the logP is a log measure of how a compound divides between an organic and an aqueous phase.
